Laboratory results taken from US20190359681A1, “NOVEL MINOR HISTOCOMPATIBILITY ANTIGENS AND USES THEREOF” (UNIVERSITÉ DE MONTRÉAL, priority 2015, published 2019).
For some assays here: What was measured is the transcript of the gene that encodes the chain shown.

Tests used:
MiHA-coding transcripts = experiment: Tissue distribution of MiHA gene expression (27 tissues, FPKM; bone marrow over skin ratio); parameters: species or system human; conditions: relative BM/skin expression of the MiHA-coding transcripts
Source text: (§1) Determination of the tissue distribution of gene expression. Allogeneic T cells can react against a multitude of host MiHAs expressed elsewhere than in hematopoietic/lymphoid organs and induce GVHD. Therefore, to avoid GVHD MiHA expression should not be ubiquitous. Unfortunately, current technical limitations prevent from experimentally assessing MiHA expression in these tissues by mass spectrometry. As an alternative, it was previously shown that MAPs preferentially derive from abundant transcripts (Granados et al. Blood 2012). Thus, the level of expression of transcripts coding for MiHAs could be used as an indicator of MiHAs expression. […] Genes were then classified as “ubiquitous” if expressed in 27 tissues with a “Fragments Per Kilobase of exons per Million mapped reads (FPKM)” >10 or as “not ubiquitous” if not expressed with a FPKM>10 in all 27 tissues. […] Reads Per Kilobase per Million mapped reads (RPKM) values of MiHA-coding genes in AML samples were obtained from the TCGA Data Portal version 3.1.6. […] Mean values were calculated using the 128 AMLs, expect for the Y chromosome-encoded UTY gene, for which only 65 male samples were considered. […]

[1] = system: primary acute myeloid leukemia (AML) samples; experiment: Expression of MiHA-coding genes in AML samples (TCGA RNA-Seq, RPKM); parameters: species or system human; conditions: mean MiHA gene expression in primary AML samples obtained from TCGA
Source text: as §1

Which BM/skin ratio (MiHA-coding transcripts) does the source give for MCPH1-1^R/I (EEINLQRNI) here?
The BM/skin ratio was 2.09.

And the “AMLs (RPKM)” value [1]?
Its value is 6.17 RPKM.
